{"source": "PubChem BioAssay AID256", "about": "(DTP/NCI, 2004)", "test_system": "CD2F1 mice, L1210 leukemia ip, survival T/C", "assay": "NCI In Vivo Anticancer Drug Screen. Data for tumor model L1210 Leukemia (intraperitoneal) in CD2F1 (CDF1) mice", "details": "higher T/C = longer survival", "method_in_brief": "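Vehicle-treated tumor-bearing mice served as controls (C) for compound-treated mice (T). Reported figure is T divided by C.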", "key": {"[1]": {"details": "T/C endpoint: mean survival time, dose: 200.0 mg/kg/injection, schedule: Q04DX003 (ip), vehicle: saline with Tween-80"}, "[2]": {"details": "T/C endpoint: mean survival time, dose: 400.0 mg/kg/injection, schedule: Q04DX003 (ip), vehicle: saline with Tween-80"}, "[3]": {"details": "T/C endpoint: mean survival time, dose: 100.0 mg/kg/injection, schedule: Q04DX003 (ip), vehicle: Klucel (hydroxypropylcellulose) (HPC)"}, "[4]": {"details": "T/C endpoint: mean survival time, dose: 200.0 mg/kg/injection, schedule: Q01DX009 (ip), vehicle: saline with Tween-80"}, "[5]": {"details": "T/C endpoint: median survival time, dose: 100.0 mg/kg/injection, schedule: Q01DX005 (ip), vehicle: saline"}, "[6]": {"details": "T/C endpoint: mean survival time, dose: 300.0 mg/kg/injection, schedule: Q01DX001 (ip), vehicle: saline"}, "[7]": {"details": "T/C endpoint: mean survival time, dose: 400.0 mg/kg/injection, schedule: Q01DX009 (ip), vehicle: saline with Tween-80"}}, "note": "The list shows only some results of the screen, not a fair sample: it gathers tests that were run many times, whatever their T/C, doses with no T/C, and many T/C values between a quarter and a half above the control. Other doses and runs of a compound stand elsewhere. T/C is the treated group as % of the vehicle group. Some doses have a count of surviving animals in place of a T/C: the source holds a T/C of zero for them, seemingly a mark for toxic or unscored doses. Some survivor counts are full or nearly so, which does not show that the dose was tolerated: the source hardly ever lists a survival T/C far under the control, and the zero likely stands for such cases as well. Counts of survivors are from the toxicity check (mostly the fifth day) where no day follows; animals may have died later. Schedule codes are those of the source, taken here to give the interval after Q, in days (D) or hours (H), and the number of doses after X. Some entries hold several experiments; the values are given in rising order. Some molecules as drawn cover several salts, stereoisomers or complexes of the source; a dose is that of the sample tested. Where survival is the endpoint, the PubChem record calls one and a half times the control and up active, and a quarter to a half above the control has no call in these data; cut-offs in other NCI protocols can differ."}
{"compound": "CC(C)[C@]12O[C@H]1[C@@H]1O[C@]13[C@]1(O[C@H]1C[C@H]1C4=C(C(=O)OC4)[C@@H](O)C[C@@]13C)[C@@H]2O", "values": [{"measurement": "T/C", "setting": "T/C endpoint: mean survival time, dose: 125.0 micrograms/kg/injection, schedule: Q01DX009 (ip), vehicle: saline + alcohol", "value": "142 % of control"}, {"measurement": "T/C", "setting": "T/C endpoint: median survival time, dose: 16.0 micrograms/kg/injection, schedule: Q03HX024 (ip), vehicle: saline + alcohol", "value": "126 % of control"}, {"measurement": "T/C", "setting": "T/C endpoint: median survival time, dose: 16.0 micrograms/kg/injection, schedule: Q03HX024 (ip), vehicle: saline", "value": "125 % of control"}, {"measurement": "T/C", "setting": "T/C endpoint: median survival time, dose: 30.0 micrograms/kg/injection, schedule: Q03HX024 (ip), vehicle: saline", "value": "148 % of control"}, {"measurement": "T/C", "setting": "T/C endpoint: median survival time, dose: 31.2 micrograms/kg/injection, schedule: Q03HX008 (ip), vehicle: saline + alcohol", "value": "127 % of control"}, {"measurement": "T/C", "setting": "T/C endpoint: median survival time, dose: 31.2 micrograms/kg/injection, schedule: Q03HX016 (ip), vehicle: saline + alcohol", "value": "144 % of control"}, {"measurement": "T/C", "setting": "T/C endpoint: median survival time, dose: 60.0 micrograms/kg/injection, schedule: Q01DX009 (ip), vehicle: saline", "value": "127 % of control"}, {"measurement": "T/C", "setting": "T/C endpoint: median survival time, dose: 125.0 micrograms/kg/injection, schedule: Q01DX009 (ip), vehicle: saline + alcohol", "value": "136 % of control"}, {"measurement": "survivor count", "setting": "T/C endpoint: median survival time, dose: 130.0 micrograms/kg/injection, schedule: Q03HX024 (ip), vehicle: saline", "value": "3 of 10"}, {"measurement": "T/C", "setting": "T/C endpoint: median survival time, dose: 250.0 micrograms/kg/injection, schedule: Q01DX009 (sc), vehicle: saline + alcohol", "value": "133 % of control"}, {"measurement": "survivor count", "setting": "T/C endpoint: median survival time, dose: 250.0 micrograms/kg/injection, schedule: Q03HX008 (ip), vehicle: saline + alcohol", "value": "0 of 10"}, {"measurement": "survivor count", "setting": "T/C endpoint: median survival time, dose: 250.0 micrograms/kg/injection, schedule: Q03HX016 (ip), vehicle: saline + alcohol", "value": "0 of 10"}, {"measurement": "survivor count", "setting": "T/C endpoint: median survival time, dose: 500.0 micrograms/kg/injection, schedule: Q03HX008 (ip), vehicle: saline + alcohol", "value": "0 of 10"}, {"measurement": "survivor count", "setting": "T/C endpoint: median survival time, dose: 1000.0 micrograms/kg/injection, schedule: Q01DX001 (sc), vehicle: saline + alcohol", "value": "6 of 10"}, {"measurement": "survivor count", "setting": "T/C endpoint: median survival time, dose: 2000.0 micrograms/kg/injection, schedule: Q01DX001 (ip), vehicle: saline + alcohol", "value": "0 of 10"}, {"measurement": "survivor count", "setting": "T/C endpoint: median survival time, dose: 2000.0 micrograms/kg/injection, schedule: Q01DX001 (sc), vehicle: saline + alcohol", "value": "0 of 10"}, {"measurement": "survivor count", "setting": "T/C endpoint: median survival time, dose: 2000.0 micrograms/kg/injection, schedule: Q08DX002 (ip), vehicle: saline + alcohol", "value": "0 of 10"}, {"measurement": "survivor count", "setting": "T/C endpoint: median survival time, dose: 4000.0 micrograms/kg/injection, schedule: Q01DX001 (ip), vehicle: saline + alcohol", "value": "0 of 10"}, {"measurement": "survivor count", "setting": "T/C endpoint: median survival time, dose: 4000.0 micrograms/kg/injection, schedule: Q01DX001 (sc), vehicle: saline + alcohol", "value": "0 of 10"}]}
{"compound": "COc1cccc(CCN)c1", "values": [{"measurement": "survivor count", "setting": "T/C endpoint: mean survival time, dose: 150.0 mg/kg/injection, schedule: Q01DX009 (ip), vehicle: saline with Tween-80", "value": "3 of 6"}]}
{"compound": "Cc1nccc2c1[nH]c1cc(N)ccc12.[Cl][Sn][Cl]", "values": [{"measurement": "survivor count", "setting": "T/C endpoint: mean survival time, dose: 100.0 mg/kg/injection, schedule: Q04DX003 (ip), vehicle: saline with Tween-80", "value": "0 of 6"}, {"measurement": "survivor count", "setting": "[1]", "value": "0 of 6"}, {"measurement": "survivor count", "setting": "[2]", "value": "0 of 6"}]}
{"compound": "O=C1C(=O)C(Cl)=C(Cl)C(Cl)=C1Cl", "values": [{"measurement": "survivor count", "setting": "T/C endpoint: mean survival time, dose: 50.0 mg/kg/injection, schedule: Q01DX009 (ip), vehicle: saline with Tween-80", "value": "2 of 6"}, {"measurement": "survivor count", "setting": "[3]", "value": "3 of 6"}, {"measurement": "survivor count", "setting": "T/C endpoint: mean survival time, dose: 200.0 mg/kg/injection, schedule: Q04DX003 (ip), vehicle: Klucel (hydroxypropylcellulose) (HPC)", "value": "0 of 6"}, {"measurement": "survivor count", "setting": "T/C endpoint: mean survival time, dose: 400.0 mg/kg/injection, schedule: Q04DX003 (ip), vehicle: Klucel (hydroxypropylcellulose) (HPC)", "value": "0 of 6"}]}
{"compound": "N#CCCN1CCS(=O)(=O)C1=O", "values": [{"measurement": "survivor count", "setting": "T/C endpoint: mean survival time, dose: 75.0 mg/kg/injection, schedule: Q01DX001 (ip), vehicle: other", "value": "2 of 6"}, {"measurement": "survivor count", "setting": "T/C endpoint: mean survival time, dose: 300.0 mg/kg/injection, schedule: Q01DX001 (ip), vehicle: other", "value": "0 of 6"}]}
{"compound": "O=C(O)CCC(=O)CCC(=O)c1ccccc1", "values": [{"measurement": "survivor count", "setting": "[1]", "value": "6 of 6"}, {"measurement": "survivor count", "setting": "[2]", "value": "6 of 6"}]}
{"compound": "CN(C)CCCC#N", "values": [{"measurement": "survivor count", "setting": "[4]", "value": "2 of 6"}]}
{"compound": "CC(NNC(=S)N(C)C1CCCCC1)c1cc2ccccc2cn1", "note": "(stereo not drawn)", "values": [{"measurement": "survivor count", "setting": "T/C endpoint: median survival time, dose: 100.0 mg/kg/injection, schedule: Q01DX005 (ip), vehicle: saline with Tween-80", "value": "0 of 6"}, {"measurement": "T/C", "setting": "[5]", "value": "137 % of control"}, {"measurement": "survivor count", "setting": "[5]", "value": "4 of 6"}, {"measurement": "survivor count", "setting": "T/C endpoint: median survival time, dose: 200.0 mg/kg/injection, schedule: Q01DX005 (ip), vehicle: saline with Tween-80", "value": "0 of 6"}, {"measurement": "survivor count", "setting": "T/C endpoint: median survival time, dose: 200.0 mg/kg/injection, schedule: Q01DX005 (ip), vehicle: saline", "value": "0 of 6 and 2 of 6"}, {"measurement": "survivor count", "setting": "T/C endpoint: median survival time, dose: 400.0 mg/kg/injection, schedule: Q01DX005 (ip), vehicle: saline", "value": "0 of 6"}]}
{"compound": "CC[S-].CC[S-].[Ni+2]", "values": [{"measurement": "survivor count", "setting": "T/C endpoint: mean survival time, dose: 40.0 mg/kg/injection, schedule: Q01DX001 (ip), vehicle: saline", "value": "2 of 6"}, {"measurement": "survivor count", "setting": "T/C endpoint: mean survival time, dose: 75.0 mg/kg/injection, schedule: Q01DX001 (ip), vehicle: saline", "value": "0 of 6"}, {"measurement": "survivor count", "setting": "T/C endpoint: mean survival time, dose: 80.0 mg/kg/injection, schedule: Q01DX001 (ip), vehicle: saline", "value": "1 of 6"}, {"measurement": "survivor count", "setting": "T/C endpoint: mean survival time, dose: 150.0 mg/kg/injection, schedule: Q01DX001 (ip), vehicle: saline", "value": "0 of 6"}, {"measurement": "survivor count", "setting": "[6]", "value": "0 of 6"}]}
{"compound": "COc1cc(OC)c(/C=C/c2cc3ccccc3c[n+]2C)c(OC)c1", "values": [{"measurement": "survivor count", "setting": "T/C endpoint: mean survival time, dose: 12.5 mg/kg/injection, schedule: Q01DX009 (ip), vehicle: saline with Tween-80", "value": "0 of 3"}]}
{"compound": "O=c1ccnc(C(F)(F)F)[nH]1", "values": [{"measurement": "survivor count", "setting": "T/C endpoint: mean survival time, dose: 400.0 mg/kg/injection, schedule: Q01DX009 (ip), vehicle: saline", "value": "0 of 6"}]}
{"compound": "OCC1OC(n2cnc3c(NCCc4ccccc4)ncnc32)C(O)C1O", "note": "(stereo not drawn)", "values": [{"measurement": "survivor count", "setting": "T/C endpoint: mean survival time, dose: 100.0 mg/kg/injection, schedule: Q01DX005 (ip), vehicle: other", "value": "3 of 6"}, {"measurement": "survivor count", "setting": "T/C endpoint: mean survival time, dose: 200.0 mg/kg/injection, schedule: Q01DX005 (ip), vehicle: other", "value": "1 of 6"}]}
{"compound": "O=c1c2ccsc2ncn1C1OC(CO)C(O)C1O", "note": "(stereo not drawn)", "values": [{"measurement": "survivor count", "setting": "T/C endpoint: mean survival time, dose: 100.0 mg/kg/injection, schedule: Q01DX009 (ip), vehicle: saline with Tween-80", "value": "2 of 3"}, {"measurement": "survivor count", "setting": "[4]", "value": "2 of 3"}, {"measurement": "survivor count", "setting": "[7]", "value": "0 of 3"}]}
{"compound": "COc1ccc(C(=O)NC[n+]2ccccc2)cc1", "values": [{"measurement": "survivor count", "setting": "T/C endpoint: mean survival time, dose: 200.0 mg/kg/injection, schedule: Q04DX003 (ip), vehicle: saline", "value": "0 of 6"}, {"measurement": "survivor count", "setting": "T/C endpoint: mean survival time, dose: 400.0 mg/kg/injection, schedule: Q04DX003 (ip), vehicle: saline", "value": "0 of 6"}]}
{"compound": "CCC(/C=C/C(C)C1CCC2C3CC=C4CC(O)CCC4(C)C3CCC12C)C(C)C", "note": "(stereo not drawn) (tested in a mixture with another compound)", "values": [{"measurement": "survivor count", "setting": "T/C endpoint: mean survival time, dose: 100.0 mg/kg/injection, schedule: Q01DX009 (ip), vehicle: other", "value": "3 of 6"}, {"measurement": "survivor count", "setting": "[7]", "value": "1 of 6"}]}
{"compound": "CC(C)=C/C(C)=C(/C#N)C(=O)OC(C)C", "values": [{"measurement": "survivor count", "setting": "[6]", "value": "2 of 6"}]}
{"compound": "NC(=O)c1[nH]cnc1/N=N/N(CCCl)Cc1ccccc1", "values": [{"measurement": "T/C", "setting": "T/C endpoint: mean survival time, dose: 44.0 mg/kg/injection, schedule: Q01DX009 (ip), vehicle: Klucel (hydroxypropylcellulose) (HPC)", "value": "143 % of control"}, {"measurement": "T/C", "setting": "[3]", "value": "131 % of control"}]}
{"compound": "CC1(C)N=C(N)N=C(N)N1c1ccc(OCCOc2ccc(S(=O)(=O)F)cc2)c(Cl)c1", "values": [{"measurement": "T/C", "setting": "T/C endpoint: mean survival time, dose: 50.0 mg/kg/injection, schedule: Q04DX003 (ip), vehicle: saline with Tween-80", "value": "125 % of control"}]}
